## Results from one PubChem assay

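A panel of named gynecologic cancer cell lines (ovarian and cervical) is scored for viability by ATP-dependent luminescence after 48 hours of compound exposure. Each compound was tested at five concentrations, including 0.46, 2.3 and 57.5 µM as the top dose. The number is the fitted AC50 potency, and a lower value means stronger cell killing. Calls follow an activity score built from curve class and fitted AC50: 40 to 100 is active, 1 to 39 is inconclusive, and 0 is inactive.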

Values are in nM. Every entry below has the call inconclusive. These entries are mostly ones the record files as inconclusive; other results of the assay are not listed here. Potencies fitted to partial, single-point or poorly fitting curves are rough. The first word of each remark tells which way the curve ran; it can be opposite to the aim of the assay. Activity scores are not listed here.

structure,condition,Potency (nM),remark
N#CCNC(=O)c1ccc(-c2ccnc(Nc3ccc(N4CCOCC4)cc3)n2)cc1,Es-2,19952,"cytotoxic, single point"
N#CCNC(=O)c1ccc(-c2ccnc(Nc3ccc(N4CCOCC4)cc3)n2)cc1,CAOV3,35481,"cytotoxic, single point"
CC1OC(=O)C[C@@H]2C(C(=O)O)=CO[C@@H](O[C@H]3O[C@H](CO)[C@@H](O)[C@H](O)[C@H]3O)[C@H]12 (some centres undefined),SKOV3,28183,"rising, single point"
C[C@@H]1O[C@@H](O[C@H]2C[C@@H](O)[C@]3(CO)[C@H]4[C@H](O)C[C@]5(C)[C@@H](C6=CC(=O)OC6)CC[C@]5(O)[C@@H]4CC[C@]3(O)C2)[C@H](O)[C@H](O)[C@H]1O,JEG-3,141.3,"cytotoxic, full curve, poor fit"
Oc1c(I)cc(Cl)c2cccnc12,Es-2,25118,"cytotoxic, single point"
Oc1c(I)cc(Cl)c2cccnc12,C33A,25118,"cytotoxic, single point"
C[C@@]12C(=O)OC(=O)[C@]1(C)C1CCC2O1,C33A,8912,"cytotoxic, full curve, poor fit"
CC(=O)OC[C@]12C[C@H](O)C(C)=C[C@H]1O[C@@H]1[C@H](O)[C@@H](O)[C@@]2(C)[C@]12CO2,JEG-3,31622,"cytotoxic, single point"
Cc1ccc(N(CC2=NCCN2)c2cccc(O)c2)cc1,Tov112D,39810,"cytotoxic, single point"
C=C1C(OC(=O)/C(C)=C\C)[C@@]23CCC4[C@@](C)(CCC[C@@]4(C)C(=O)O)C2CC[C@H]1C3OC(C)=O (some centres undefined),CAOV3,14125,"cytotoxic, partial curve, poor fit"
CNC(=O)c1ccc(N2C(=S)N(c3ccc(C#N)c(C(F)(F)F)c3)C(=O)C23CCC3)cc1F,Hek293T; control line for the selectivity index,22387,"rising, partial curve, poor fit"
NC(=O)CS(=O)C(c1ccccc1)c1ccccc1 (centres undefined),OV90,39810,"cytotoxic, single point"
CCN(CC)CCCCCCNc1cc(OC)cc2c(C)ccnc12,JEG-3,3162,"cytotoxic, single point"
COC(=O)CCC1(C)C(C(C)(C)O)C(O)CC2(C)Oc3c(C)c4c(c(OC)c3CC21)C(=O)OC4 (centres undefined),Tov-21-G,14125,"cytotoxic, single point"
COC(=O)C1=CO[C@@H](O[C@@H]2O[C@H](CO)[C@@H](O)[C@H](O)[C@H]2O)C2C1C(=O)C[C@H]2C (some centres undefined),CAOV3,5012,"cytotoxic, single point"
C[C@@H]1C[C@@H](O)[C@@]23CO[C@]2(CO)C[C@@H](O)CC3[C@@]12CC(c1ccoc1)OC2=O (some centres undefined),OV90,89.1,"cytotoxic, full curve, poor fit"
C[C@@H]1C[C@@H](O)[C@@]23CO[C@]2(CO)C[C@@H](O)CC3[C@@]12CC(c1ccoc1)OC2=O (some centres undefined),CAOV3,891.3,"cytotoxic, single point"
C[C@@H]1C[C@@H](O)[C@@]23CO[C@]2(CO)C[C@@H](O)CC3[C@@]12CC(c1ccoc1)OC2=O (some centres undefined),SKOV3,316.2,"cytotoxic, full curve, poor fit"
CCCC(=O)c1cc(O)c(O)cc1O,PA-1,7080,"rising, partial curve, poor fit"
CCCC(=O)c1cc(O)c(O)cc1O,SKOV3,1000,"rising, partial curve, poor fit"
COC(=O)C1C(O)CCC2CN3CCc4c([nH]c5ccccc45)C3CC21 (centres undefined),CASKI,446.7,"cytotoxic, full curve, poor fit"
C[C@]12CCC(=O)C=C1CC[C@@H]1[C@@H]2CC[C@]2(C)C(=O)CC[C@@H]12,HeLa,25118,"cytotoxic, single point"
COc1ccc2c(c1)C=C1Cn3c-2c(C2CCCCC2)c2ccc(cc23)C(=O)NS(=O)(=O)N(C)CCOCCN(C)C1=O,SKOV3,2818,-
COc1ccc2c(c1)C=C1Cn3c-2c(C2CCCCC2)c2ccc(cc23)C(=O)NS(=O)(=O)N(C)CCOCCN(C)C1=O,PA-1,223872,-
COc1ccc2c(c1)C=C1Cn3c-2c(C2CCCCC2)c2ccc(cc23)C(=O)NS(=O)(=O)N(C)CCOCCN(C)C1=O,Es-2,22387,-
Cn1cnc([N+](=O)[O-])c1Sc1ncnc2nc[nH]c12,HeLa,3981,"cytotoxic, full curve, poor fit"
CC1CCC2(NC1)OC1C(O)C3C4CCC5CC(O[C@@H]6O[C@H](CO)[C@@H](O)[C@H](O)[C@H]6O[C@@H]6O[C@@H](C)[C@H](O)[C@@H](O)[C@H]6O)CCC5(C)C4CCC3(C)C1C2C (some centres undefined),SKOV3,8912,"rising, single point"

Some entries from above, unchanged:

| structure | condition | Potency (nM) | remark |
|---|---|---|---|
| `COC(=O)CCC1(C)C(C(C)(C)O)C(O)CC2(C)Oc3c(C)c4c(c(OC)c3CC21)C(=O)OC4` (centres undefined) | Tov-21-G | 14125 | cytotoxic, single point |
| `C[C@@H]1C[C@@H](O)[C@@]23CO[C@]2(CO)C[C@@H](O)CC3[C@@]12CC(c1ccoc1)OC2=O` (some centres undefined) | OV90 | 89.1 | cytotoxic, full curve, poor fit |
| `CC1OC(=O)C[C@@H]2C(C(=O)O)=CO[C@@H](O[C@H]3O[C@H](CO)[C@@H](O)[C@H](O)[C@H]3O)[C@H]12` (some centres undefined) | SKOV3 | 28183 | rising, single point |

From PubChem BioAssay record AID1345084 (NCATS, 2018).